Reference: patent US20070293656A1, “COLLAGEN BINDING PEPTIDES” (Epix Pharmaceuticals, Inc., priority 2005, published 2007)
These are yes or no findings as the source states them, for the method shown. Some results given as binding are weak or reduced against the parent protein; the word gives no strength.

Protein sequences, listed by entry. Tags and fused reporters are not part of them. Lines headed by an entry give the natural chain unless they say otherwise; changes in a name come on top.
UniProt P02454: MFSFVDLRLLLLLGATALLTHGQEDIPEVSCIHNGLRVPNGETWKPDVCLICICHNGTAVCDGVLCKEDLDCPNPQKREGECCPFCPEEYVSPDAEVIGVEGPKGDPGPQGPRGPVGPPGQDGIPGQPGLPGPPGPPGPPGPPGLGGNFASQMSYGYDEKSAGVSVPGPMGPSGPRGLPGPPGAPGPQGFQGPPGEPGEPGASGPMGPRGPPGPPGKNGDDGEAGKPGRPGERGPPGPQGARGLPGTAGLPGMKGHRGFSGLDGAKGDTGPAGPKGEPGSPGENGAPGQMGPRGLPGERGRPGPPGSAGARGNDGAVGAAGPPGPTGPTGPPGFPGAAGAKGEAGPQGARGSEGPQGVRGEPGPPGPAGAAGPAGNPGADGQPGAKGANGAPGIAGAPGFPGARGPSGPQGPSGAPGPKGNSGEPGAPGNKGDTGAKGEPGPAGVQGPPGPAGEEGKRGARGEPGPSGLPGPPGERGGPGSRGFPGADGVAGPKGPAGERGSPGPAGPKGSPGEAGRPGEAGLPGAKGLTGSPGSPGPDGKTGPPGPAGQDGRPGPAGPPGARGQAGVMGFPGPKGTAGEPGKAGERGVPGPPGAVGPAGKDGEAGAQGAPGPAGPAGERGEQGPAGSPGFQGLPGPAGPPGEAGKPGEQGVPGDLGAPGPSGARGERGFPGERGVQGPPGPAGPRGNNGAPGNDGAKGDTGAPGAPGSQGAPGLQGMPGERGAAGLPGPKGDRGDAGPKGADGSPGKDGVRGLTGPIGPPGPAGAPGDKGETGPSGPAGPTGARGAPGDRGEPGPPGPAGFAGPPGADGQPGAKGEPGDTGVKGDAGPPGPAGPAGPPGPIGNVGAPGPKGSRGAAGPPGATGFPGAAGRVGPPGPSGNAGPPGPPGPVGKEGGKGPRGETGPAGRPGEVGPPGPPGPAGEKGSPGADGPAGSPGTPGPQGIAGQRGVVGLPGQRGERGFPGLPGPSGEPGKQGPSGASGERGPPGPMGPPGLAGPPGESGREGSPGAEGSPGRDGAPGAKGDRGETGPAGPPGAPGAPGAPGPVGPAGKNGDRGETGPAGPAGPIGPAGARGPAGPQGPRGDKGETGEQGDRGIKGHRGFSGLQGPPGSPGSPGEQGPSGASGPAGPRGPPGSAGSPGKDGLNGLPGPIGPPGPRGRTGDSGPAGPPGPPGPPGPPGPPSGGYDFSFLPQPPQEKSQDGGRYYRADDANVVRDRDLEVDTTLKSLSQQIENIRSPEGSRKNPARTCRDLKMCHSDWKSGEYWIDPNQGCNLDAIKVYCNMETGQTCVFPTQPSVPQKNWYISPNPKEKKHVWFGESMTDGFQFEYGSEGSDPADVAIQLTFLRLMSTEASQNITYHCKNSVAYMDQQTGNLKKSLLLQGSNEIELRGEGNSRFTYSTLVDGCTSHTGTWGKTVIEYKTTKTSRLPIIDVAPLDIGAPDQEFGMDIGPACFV
UniProt P02466: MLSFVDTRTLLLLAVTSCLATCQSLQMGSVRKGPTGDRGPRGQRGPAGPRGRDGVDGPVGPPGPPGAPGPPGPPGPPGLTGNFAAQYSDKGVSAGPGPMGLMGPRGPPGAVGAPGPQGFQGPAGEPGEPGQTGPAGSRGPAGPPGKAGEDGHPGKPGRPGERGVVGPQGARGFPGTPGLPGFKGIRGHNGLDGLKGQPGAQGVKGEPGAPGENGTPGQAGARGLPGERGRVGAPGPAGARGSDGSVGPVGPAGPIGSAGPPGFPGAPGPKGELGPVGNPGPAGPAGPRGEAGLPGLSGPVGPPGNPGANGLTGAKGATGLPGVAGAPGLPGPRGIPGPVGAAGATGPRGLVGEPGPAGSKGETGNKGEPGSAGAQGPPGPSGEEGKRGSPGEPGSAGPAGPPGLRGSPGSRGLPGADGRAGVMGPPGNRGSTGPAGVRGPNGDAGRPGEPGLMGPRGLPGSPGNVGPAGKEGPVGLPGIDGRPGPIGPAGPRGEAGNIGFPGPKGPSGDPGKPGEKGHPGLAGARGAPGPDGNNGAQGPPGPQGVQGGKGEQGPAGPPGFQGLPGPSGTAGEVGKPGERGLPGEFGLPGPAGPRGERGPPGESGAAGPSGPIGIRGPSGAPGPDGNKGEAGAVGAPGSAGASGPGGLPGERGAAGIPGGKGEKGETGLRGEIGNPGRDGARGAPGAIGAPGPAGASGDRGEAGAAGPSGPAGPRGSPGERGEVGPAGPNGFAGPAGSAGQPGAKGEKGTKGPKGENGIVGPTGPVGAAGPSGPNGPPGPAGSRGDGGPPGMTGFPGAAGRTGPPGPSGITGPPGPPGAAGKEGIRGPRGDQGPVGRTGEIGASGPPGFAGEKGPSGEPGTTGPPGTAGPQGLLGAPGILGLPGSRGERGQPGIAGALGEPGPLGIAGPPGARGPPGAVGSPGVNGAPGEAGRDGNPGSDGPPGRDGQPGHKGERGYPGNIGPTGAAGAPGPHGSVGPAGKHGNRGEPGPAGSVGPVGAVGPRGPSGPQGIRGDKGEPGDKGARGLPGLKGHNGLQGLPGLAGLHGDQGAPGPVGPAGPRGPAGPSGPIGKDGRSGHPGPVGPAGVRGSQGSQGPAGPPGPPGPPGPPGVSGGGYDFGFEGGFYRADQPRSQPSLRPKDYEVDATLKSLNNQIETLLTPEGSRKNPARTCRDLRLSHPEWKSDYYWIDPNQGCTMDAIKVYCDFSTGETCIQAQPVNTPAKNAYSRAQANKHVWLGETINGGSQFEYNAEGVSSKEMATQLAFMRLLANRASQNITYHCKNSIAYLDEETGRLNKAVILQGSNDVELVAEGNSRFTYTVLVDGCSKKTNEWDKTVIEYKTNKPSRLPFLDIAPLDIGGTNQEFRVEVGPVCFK

Biological target: rat collagen (acid soluble, type I, rat tail, Upstate 08-115) (rat) (UniProt P02454+P02466)
Assay: MR imaging of centrifuged rat type I collagen gel

Binder: GQWHCTTRFPHHYCLYG (N-terminal Glu-DTPA-Gd on the G linker; C-terminal PEG-H) [Compound ID 1022]
- binding: binds
